# The supplement of paper PMC8728848
# This is one part of the list.
# Key:
# Test in all cases: glycan array binding signal (z-score within array); higher = stronger binding
# Conditions in all cases: glycan notation: IUPAC condensed, linker removed
# Neu5Ac(a2-8)Neu5Ac = biological target: Neu5Ac(a2-8)Neu5Ac
# Summary of the method: (§1)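 The binding signal is a Z-score computed within each array. Data were drawn from 3228 arrays in the Consortium for Functional Glycomics database, restricted to those with a known protein sequence. Scores were averaged over arrays of the same protein sequence at different concentrations or buffers, and over linkers, and negative values can be taken as non-binding.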
# [1] = biological target: Neu5Ac(a2-8)Neu5Ac(a2-3)Gal(b1-3)GalNAc(b1-4)[Neu5Ac(a2-3)]Gal(b1-4)Glc
# Summary of the method: as §1
# [2] = biological target: Neu5Ac(a2-8)Neu5Ac(a2-3)Gal(b1-3)GalNAc(b1-4)[Neu5Ac(a2-8)Neu5Ac(a2-3)]Gal(b1-4)Glc
# Summary of the method: as §1
# [3] = biological target: Neu5Ac(a2-8)Neu5Ac(a2-3)Gal(b1-4)Glc
# Summary of the method: as §1
# [4] = biological target: Neu5Ac(a2-8)Neu5Ac(a2-3)Gal(b1-4)GlcNAc
# Summary of the method: as §1
# [5] = biological target: Neu5Ac(a2-8)Neu5Ac(a2-3)[Gal(b1-3)GalNAc(b1-4)]Gal(b1-4)Glc
# Summary of the method: as §1
# [6] = biological target: Neu5Ac(a2-8)Neu5Ac(a2-3)[GalNAc(b1-4)]Gal(b1-4)Glc
# Summary of the method: as §1
# [7] = biological target: Neu5Ac(a2-8)Neu5Ac(a2-8)Neu5Ac
# Summary of the method: as §1
# [8] = biological target: Neu5Ac(a2-8)Neu5Ac(a2-8)Neu5Ac(a2-3)Gal(b1-4)Glc
# Summary of the method: as §1
# [9] = biological target: Neu5Ac(a2-8)Neu5Ac(a2-8)Neu5Ac(a2-3)[Gal(b1-3)GalNAc(b1-4)]Gal(b1-4)Glc
# Summary of the method: as §1
# [10] = biological target: Neu5Ac(a2-8)Neu5Ac(a2-8)Neu5Ac(a2-3)[GalNAc(b1-4)]Gal(b1-4)Glc
# Summary of the method: as §1
# [11] = biological target: Neu5Ac(a2-8)Neu5Ac(a2-8)Neu5Ac(a2-8)Neu5Ac(a2-3)[GalNAc(b1-4)]Gal(b1-4)Glc
# Summary of the method: as §1
# [12] = biological target: Neu5Ac(a2-8)Neu5Gc(a2-3)Gal(b1-4)GlcNAc
# Summary of the method: as §1
# [13] = biological target: Neu5Ac(b2-6)Gal(b1-4)GlcNAc
# Summary of the method: as §1
# Neu5Ac(b2-6)GalNAc = biological target: Neu5Ac(b2-6)GalNAc
# Summary of the method: as §1
# [14] = biological target: Neu5Ac9Ac(a2-3)Gal(b1-3)GlcNAc
# Summary of the method: as §1
# [15] = biological target: Neu5Ac9Ac(a2-3)Gal(b1-4)GlcNAc
# Summary of the method: as §1
# [16] = biological target: Neu5Ac9Ac(a2-6)Gal(b1-4)GlcNAc
# Summary of the method: as §1
# [17] = biological target: Neu5Gc(a2-3)Gal(b1-3)GlcNAc
# Summary of the method: as §1
# [18] = biological target: Neu5Gc(a2-3)Gal(b1-3)[Fuc(a1-4)]GlcNAc
# Summary of the method: as §1
# Neu5Gc(a2-3)Gal(b1-4)Glc = biological target: Neu5Gc(a2-3)Gal(b1-4)Glc
# Summary of the method: as §1
# [19] = biological target: Neu5Gc(a2-3)Gal(b1-4)GlcNAc
# Summary of the method: as §1
# [20] = biological target: Neu5Gc(a2-3)Gal(b1-4)GlcNAc(b1-3)Gal(b1-4)GlcNAc(b1-2)Man(a1-3)[Neu5Gc(a2-3)Gal(b1-4)GlcNAc(b1-3)Gal(b1-4)GlcNAc(b1-2)Man(a1-6)]Man(b1-4)GlcNAc(b1-4)GlcNAc
# Summary of the method: as §1
# [21] = biological target: Neu5Gc(a2-3)Gal(b1-4)[Fuc(a1-3)]GlcNAc
# Summary of the method: as §1
# [22] = biological target: Neu5Gc(a2-6)Gal(b1-4)GlcNAc
# Summary of the method: as §1
# Neu5Gc(a2-6)GalNAc = biological target: Neu5Gc(a2-6)GalNAc
# Summary of the method: as §1
# [23] = biological target: Neu5Gc(a2-8)Neu5Ac(a2-3)Gal(b1-4)GlcNAc
# Summary of the method: as §1
# [24] = biological target: Neu5Gc(a2-8)Neu5Gc(a2-3)Gal(b1-4)GlcNAc
# Summary of the method: as §1
# [25] = biological target: Neu5Gc(a2-8)Neu5Gc(a2-3)Gal(b1-4)GlcNAc(b1-3)Gal(b1-4)GlcNAc
# Summary of the method: as §1
# [26] = biological target: Neu5Gc(a2-8)Neu5Gc(a2-6)Gal(b1-4)GlcNAc
# Summary of the method: as §1
# [27] = biological target: Neu5Gc(b2-6)Gal(b1-4)GlcNAc
# Summary of the method: as §1
binder,measurement,setting,value
PX9961W-pdi-543-27-543 (Parabacteroides distasonis) (protein) EGNATTTSYFLNDQQAIDAIDGLYERFHQEGCYGRELFWEQGAACDIVWGRTRGYNSLATLAYTGDESPLRDVFSRMYSTMSRANWIIQELVKKEKGTTLTAVEKRSLGEAYFSRGWAHYLIAYRYGTDKQGVPFVRYEDFPDDYDNSIPPQQATVMDNYKLIIEDMDKAIAYLPIFESYDADNRGRAHQAAAVAFKAKTYAYWATWDATQWNNVIEMVNQLENNYNRDLAPTFAELFSSDLKDYWNAEYLWTIPSIGGALPGGTEFPGIILENKGWGKYNGWGQMKPSYDIYEEMAKDGKGNDRLVRSILEYNQEFPFFGETRKFWSTSDLEAGFMINKYMDAFKYSDPVGEGAVSANGDWPTVRVNFPIIRFAEMLLFRAEAYLMTGQADKATADINRIRLRSNLTPLTGTATMKDLYHERRCELAFEFTDHLFDLKRWNRSSNADIKTLADKELNAHPRIRRYEDRANPESAFTIIGYEDYTNKNAYQAHMMVFPYPSEEITKSNGQLKQNEGY,glycan array binding signal (z-score),Neu5Ac(a2-8)Neu5Ac,0.374
same,glycan array binding signal (z-score),[1],-0.508
same,glycan array binding signal (z-score),[2],0.041
same,glycan array binding signal (z-score),[3],0.034
same,glycan array binding signal (z-score),[4],-0.026
same,glycan array binding signal (z-score),[5],-0.302
same,glycan array binding signal (z-score),[6],0.603
same,glycan array binding signal (z-score),[7],-0.413
same,glycan array binding signal (z-score),[8],-0.66
same,glycan array binding signal (z-score),[9],-0.424
same,glycan array binding signal (z-score),[10],-0.103
same,glycan array binding signal (z-score),[11],-1.1
same,glycan array binding signal (z-score),[12],14.4
same,glycan array binding signal (z-score),[13],0.001
same,glycan array binding signal (z-score),Neu5Ac(b2-6)GalNAc,1.53
same,glycan array binding signal (z-score),[14],-0.302
same,glycan array binding signal (z-score),[15],-0.691
same,glycan array binding signal (z-score),[16],-0.003
same,glycan array binding signal (z-score),[17],-0.935
same,glycan array binding signal (z-score),[18],-0.874
same,glycan array binding signal (z-score),Neu5Gc(a2-3)Gal(b1-4)Glc,-0.416
same,glycan array binding signal (z-score),[19],-0.905
same,glycan array binding signal (z-score),[20],-0.102
same,glycan array binding signal (z-score),[21],-0.038
same,glycan array binding signal (z-score),[22],-0.667
same,glycan array binding signal (z-score),Neu5Gc(a2-6)GalNAc,1.23
same,glycan array binding signal (z-score),[23],0.025
same,glycan array binding signal (z-score),[24],0.188
same,glycan array binding signal (z-score),[25],-0.859
same,glycan array binding signal (z-score),[26],0.393
same,glycan array binding signal (z-score),[27],0.045

# An excerpt of these results, with tabs.
binder	measurement	setting	value
PX9961W-pdi-543-27-543 (Parabacteroides distasonis) (protein) EGNATTTSYFLNDQQAIDAIDGLYERFHQEGCYGRELFWEQGAACDIVWGRTRGYNSLATLAYTGDESPLRDVFSRMYSTMSRANWIIQELVKKEKGTTLTAVEKRSLGEAYFSRGWAHYLIAYRYGTDKQGVPFVRYEDFPDDYDNSIPPQQATVMDNYKLIIEDMDKAIAYLPIFESYDADNRGRAHQAAAVAFKAKTYAYWATWDATQWNNVIEMVNQLENNYNRDLAPTFAELFSSDLKDYWNAEYLWTIPSIGGALPGGTEFPGIILENKGWGKYNGWGQMKPSYDIYEEMAKDGKGNDRLVRSILEYNQEFPFFGETRKFWSTSDLEAGFMINKYMDAFKYSDPVGEGAVSANGDWPTVRVNFPIIRFAEMLLFRAEAYLMTGQADKATADINRIRLRSNLTPLTGTATMKDLYHERRCELAFEFTDHLFDLKRWNRSSNADIKTLADKELNAHPRIRRYEDRANPESAFTIIGYEDYTNKNAYQAHMMVFPYPSEEITKSNGQLKQNEGY	glycan array binding signal (z-score)	[3]	0.034
same	glycan array binding signal (z-score)	Neu5Gc(a2-3)Gal(b1-4)Glc	-0.416
